The values are deposited in ChEMBL (CHEMBL3988442, “University of Dundee, Small-Polar-MMV Screening Library” (2021)).

Protein sequences, listed by entry. Tags and fused reporters are not part of them.
UniProt E9BF75, entry or part of it: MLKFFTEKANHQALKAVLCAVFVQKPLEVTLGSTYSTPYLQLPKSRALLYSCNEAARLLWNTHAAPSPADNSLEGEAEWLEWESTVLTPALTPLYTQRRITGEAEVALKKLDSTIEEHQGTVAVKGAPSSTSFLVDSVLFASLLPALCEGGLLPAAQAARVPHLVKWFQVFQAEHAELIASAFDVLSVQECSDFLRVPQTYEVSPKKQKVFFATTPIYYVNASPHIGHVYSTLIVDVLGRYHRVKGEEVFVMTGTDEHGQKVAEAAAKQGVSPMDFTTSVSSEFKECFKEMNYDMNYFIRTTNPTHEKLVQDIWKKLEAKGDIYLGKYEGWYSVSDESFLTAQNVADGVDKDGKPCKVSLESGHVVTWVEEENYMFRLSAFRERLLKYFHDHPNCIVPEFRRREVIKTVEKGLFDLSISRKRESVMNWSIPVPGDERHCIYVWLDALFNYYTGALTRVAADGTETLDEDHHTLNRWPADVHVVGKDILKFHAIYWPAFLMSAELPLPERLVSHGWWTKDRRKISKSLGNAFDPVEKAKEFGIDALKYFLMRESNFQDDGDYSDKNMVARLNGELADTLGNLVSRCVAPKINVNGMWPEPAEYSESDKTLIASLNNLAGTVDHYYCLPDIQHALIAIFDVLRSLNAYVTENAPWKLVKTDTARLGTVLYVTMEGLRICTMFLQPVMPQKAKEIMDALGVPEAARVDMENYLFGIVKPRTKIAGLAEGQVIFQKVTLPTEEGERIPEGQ

All values are in %. The record does not define 0% and 100%; most values in the screen are far below 50% and negative numbers occur (in some assays of this library far below -100). Compounds were drawn at random from those tested, without regard to their results. A dash means the value is not listed here; it may have been measured.

A: 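Primary screen of methionyl-tRNA synthetase; the read-out is not stated. Target: Methionyl-tRNA synthetase (putative), Leishmania donovani (UniProt E9BF75). The test concentration is not given. Values are per cent inhibition. Size under these conditions: about 68,000 compounds, about 24 of them at 50% or above in at least one test.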
B: 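Assay on Mycobacterium tuberculosis, filed only as a heat shock assay from Cornell; the read-out is not stated. The concentration is filed as 10 mM, unlikely as a test dose, so the dose is not known. Higher reads as stronger inhibition (inferred: compounds with an IC50 in retests scored well above the rest). Size under these conditions: about 69,000 compounds, about 930 of them at 50% or above in at least one test.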

| # | compound | A | B |
|---|---|---|---|
| 1 | `CN(C)C(=O)c1nc(-c2ccc(S(C)(=O)=O)cc2)c2ccccn12` | 14.86 | -10.89 |
| 2 | `COCCCOc1ccc(C(=O)N(C)Cc2cccc(O)c2)cn1` | 23.87 | -4.841 |
| 3 | `COc1ccc(CCN2CC(n3nc(C)cc3C)C2)cc1` | 14.37 | -14.55 |
| 4 | `O=C(c1ccccn1)N1C[C@@H]2OCC(=O)N(CC3CCCCC3)[C@@H]2C1` | 10.1 | - |
| 5 | `CC(C)CN1CCC(NC(=O)c2ccc(F)cc2I)CC1` | 9.735 | -8.563 |
| 6 | `O=C(c1ccn(-c2cccc(Cl)c2)n1)N1CCN(C2CC2)CC1` | 3.644 | -3.653 |
| 7 | `CN(Cc1nc2ccsc2c(=O)[nH]1)C[C@@H]1CCCN2CCCC[C@H]12` | 8.906 | - |
| 8 | `COc1ccccc1C1CNC(=O)c2nc(-c3cnn(C)c3)[nH]c2C1` (stereo not given) | 20.65 | -4.706 |
| 9 | `Cc1cccnc1NC(=O)CNC(=O)c1ccccc1Cl` | 12.97 | -11.05 |
| 10 | `CCOC1COC2(CCN(Cc3cccc(C#N)c3)CC2)C1` (stereo not given) | 14.01 | - |
| 11 | `COc1ccc2c(c1)OC1(CCN(Cc3ccc(F)cc3)CC1)CC2=O` | 5.051 | -7.309 |
| 12 | `COc1ccc(C(C)NCc2c[nH]nc2C)cc1Br` (stereo not given) | 8.993 | - |
| 13 | `C/C=C(/C)C(=O)NS(=O)(=O)c1ccc(Cl)cn1` | 4.032 | -32.31 |
| 14 | `CSCc1nc(CNC(=O)c2cnn(C(C)C)c2)cs1` | 14.34 | -2.533 |
| 15 | `[H][C@]12CCN(C(=O)NC3CCCC3)CC[C@@]1([H])S(=O)(=O)N(CCC(C)C)C2` | - | -5.902 |
| 16 | `CNc1oc(-c2ccc(OC)c(S(=O)(=O)N3CCCC3)c2)nc1C#N` | 13.64 | -28.54 |
| 17 | `COCCN(C)c1ccc(NCc2ccsc2)nc1` | 19.5 | 90.49 |
| 18 | `CC(=O)N1CCC2(CC1)COCCN2CCN(C)C.O=C(O)C(F)(F)F.O=C(O)C(F)(F)F` | - | -11.11 |
| 19 | `CC(C)COC(C)C(=O)N1CCN(S(C)(=O)=O)CC1` (stereo not given) | 6.404 | 7.88 |
| 20 | `O=C1CC2(CCN(Cc3ccco3)C2)CN1c1ccc2c(c1)OCO2` (stereo not given) | 7.843 | - |
| 21 | `CCc1cc(N(C)Cc2ccnc(C)c2)n2nc(C)c(C)c2n1` | 5.115 | 28.31 |
| 22 | `CN1CC(C(=O)NCc2cccnc2-n2cccn2)CC1=O` (stereo not given) | 5.525 | -9.464 |
| 23 | `Cc1ccnc(NC(=O)C2CCN(CCCn3ccnc3C)CC2)c1` | 10 | -30.82 |
| 24 | `O=C(N1CCCC1)N1CCc2ncnc(C3CCOC3)c2CC1` (stereo not given) | 10.8 | 5.898 |
| 25 | `CCn1cnnc1CNC(=O)N1CCN(c2cccc(OC)c2)CC1` | 12.55 | 13.27 |
| 26 | `Cc1c[nH]c(CN(C)C(C(=O)O)c2c(F)cccc2Cl)n1` (stereo not given) | 13.31 | -2.924 |
| 27 | `CC(=O)N1CCN(c2ccccc2CNc2cc(F)cc(F)c2)CC1` | 2.507 | -14.96 |
| 28 | `Cc1nc2ccnn2c(C)c1CCC(=O)N1CCN(C2CC2)CC1` | 9.449 | 8.589 |
| 29 | `CN(CCS(=O)(=O)c1cc(Cl)ccc1Cl)CC(N)=O` | 6.25 | 30.64 |
| 30 | `Cc1cnn(CC(=O)NCC2CCN(c3cc(Cl)ccc3C)C2)c1` (stereo not given) | 12.72 | 0.4801 |
| 31 | `Cc1nn(C)c(C)c1C1CCCN1c1ncnc2sccc12` (stereo not given) | 3.714 | 10.37 |
| 32 | `COc1ccc([C@@H]2CN(C(=O)Cc3cccs3)C[C@H]2NC(C)=O)cc1` | 7.534 | 7.937 |
| 33 | `O=C1NCc2ccccc2CC12CCN(Cc1ccccc1Cl)CC2` | 16 | -26.79 |
| 34 | `CN1C(=O)[C@H]2CC[C@@H]1CN(C(=O)Nc1cccc3ccccc13)C2` | 8.761 | - |
| 35 | `COCc1cnc2n1CCN(C(=O)c1cnc3ccccc3c1)C2C` (stereo not given) | 11.76 | 0.3642 |
| 36 | `c1cc(C2CCCN2CC2CC2)n[nH]1` (stereo not given) | 18.99 | 1.213 |
| 37 | `Cn1cc(CN2CCCC23CCN(S(C)(=O)=O)CC3)cn1` | 7.333 | 7.667 |
| 38 | `CCCn1nccc1C(=O)Nc1ncc(C)s1` | 10.79 | 20.24 |
| 39 | `COCCNc1nc(N2CCCC2)nc2nccnc12` | 0.5391 | -15.51 |
| 40 | `COc1ccncc1NCc1cscn1` | 5.455 | 5.434 |
| 41 | `Cc1cccc(C(C)NCC2CCS(=O)(=O)CC2)c1` (stereo not given) | 0.7634 | -4.465 |
| 42 | `Cc1cc(C(=O)Cn2cnnc2[S+](C)[O-])cc(C)c1F` (stereo not given) | 0.7117 | -5.198 |
| 43 | `c1ncn(Cc2nnc(C3CCN(CC4CC4)CC3)n2C2CC2)n1` | 11.78 | 12.35 |
| 44 | `CC(C)CN1CC[C@@H]2[C@@H]1CCN2C(=O)N(C)C` | 8.651 | - |
| 45 | `CN(C)c1ccc(C(=O)N(CCO)CC2CC2)c(F)c1` | 19.89 | -6.887 |
| 46 | `[H][C@]12CC[C@@H](Nc3cccnn3)[C@@]1([H])CN(Cc1c[nH]c3ccccc13)C2` | - | 9.471 |
| 47 | `CSC(C)CCN1CCCn2nc(CNC(=O)C3CCC3)cc2C1` (stereo not given) | 14.05 | 10.39 |
| 48 | `CCS(=O)(=O)N(C)C1CCN(C(=O)c2ccc(C)c(C)c2)CC1` | 2.198 | -18.26 |
| 49 | `CCn1cc(CN2CCCC3(CCC(=O)N(CCC(C)C)C3)C2)cn1` (stereo not given) | 0 | 14.64 |
| 50 | `CC(C)c1n[nH]c(C2CN(C(=O)c3cn4ccccc4n3)CCO2)n1` (stereo not given) | 9.143 | -16.34 |
| 51 | `CCOC(=O)NC(CNC(=O)c1cc(Cl)ccn1)CC(C)C` (stereo not given) | 4.27 | 4.864 |
| 52 | `Cc1cc(C2CCCN2Cc2ccc(S(=O)(=O)N3CCCC3)o2)on1` (stereo not given) | 7.186 | -2.33 |
| 53 | `CC(C)c1nc(C2CCCN(C(=O)CCn3ccnc3)C2)no1` (stereo not given) | 1.307 | -12.29 |
| 54 | `Cc1cc(C(=O)N2CCOC(c3ccc(Cl)c(Cl)c3)C2)[nH]n1` (stereo not given) | 17.1 | 10.51 |
| 55 | `COc1ccc(-c2cccc3c2OC(CN)C3)cc1F` (stereo not given) | 20.21 | 21.33 |
| 56 | `CSCC(=O)N1C[C@H]2CC[C@@H]1CN(C1Cc3ccccc3C1)C2` | 9.964 | - |
| 57 | `O=C1COC[C@H]([C@H](O)c2ccc(NC(=O)c3ccco3)cc2)N1` | 9.023 | - |
| 58 | `CSCC[C@H](N)c1nnc(SCC(=O)Nc2ccc(Br)cc2)o1.Cl` | - | -0.3577 |

6 of the entries, repeated:

With CSCC(=O)N1C[C@H]2CC[C@@H]1CN(C1Cc3ccccc3C1)C2 the screen gave A: 9.964%.
With CN1CC(C(=O)NCc2cccnc2-n2cccn2)CC1=O (stereo not given) the screen gave A: 5.525%; B: -9.464%.
With CSCC[C@H](N)c1nnc(SCC(=O)Nc2ccc(Br)cc2)o1.Cl the screen gave B: -0.3577%.
With COCCCOc1ccc(C(=O)N(C)Cc2cccc(O)c2)cn1 the screen gave A: 23.87%; B: -4.841%.
With O=C(c1ccccn1)N1C[C@@H]2OCC(=O)N(CC3CCCCC3)[C@@H]2C1 the screen gave A: 10.1%.
With CN(C)C(=O)c1nc(-c2ccc(S(C)(=O)=O)cc2)c2ccccn12 the screen gave A: 14.86%; B: -10.89%.